Source: the supplement of paper PMC10849652
This is one part of the list. Residues, ends and D or L forms follow the SMILES beside them. *: point of attachment. Cbz = O=C(OCc1ccccc1)*

Sequences of proteins named here, by UniProt entry; tags and fusion partners are left off. A change or cut given only in a name is not applied to a line headed by its entry.
UniProt O15234, whole entry, looked up: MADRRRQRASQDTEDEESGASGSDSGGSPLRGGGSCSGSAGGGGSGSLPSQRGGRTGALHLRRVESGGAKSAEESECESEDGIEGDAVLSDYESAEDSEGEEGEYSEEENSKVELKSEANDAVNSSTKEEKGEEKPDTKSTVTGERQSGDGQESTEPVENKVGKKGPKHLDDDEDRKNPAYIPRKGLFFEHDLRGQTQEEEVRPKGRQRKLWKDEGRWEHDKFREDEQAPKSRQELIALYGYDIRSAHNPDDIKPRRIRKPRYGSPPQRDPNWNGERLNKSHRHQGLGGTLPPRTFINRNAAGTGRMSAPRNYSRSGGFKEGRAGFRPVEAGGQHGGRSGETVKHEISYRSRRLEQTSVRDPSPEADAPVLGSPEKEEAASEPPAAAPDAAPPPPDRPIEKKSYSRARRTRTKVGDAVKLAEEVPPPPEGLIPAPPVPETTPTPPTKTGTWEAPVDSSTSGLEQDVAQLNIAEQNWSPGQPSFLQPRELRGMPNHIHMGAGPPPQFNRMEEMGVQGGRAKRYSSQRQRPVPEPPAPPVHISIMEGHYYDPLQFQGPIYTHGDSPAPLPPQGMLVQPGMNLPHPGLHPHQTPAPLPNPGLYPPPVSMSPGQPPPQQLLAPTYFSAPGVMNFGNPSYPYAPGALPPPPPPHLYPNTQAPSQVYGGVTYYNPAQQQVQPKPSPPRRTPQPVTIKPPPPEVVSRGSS
UniProt P48509: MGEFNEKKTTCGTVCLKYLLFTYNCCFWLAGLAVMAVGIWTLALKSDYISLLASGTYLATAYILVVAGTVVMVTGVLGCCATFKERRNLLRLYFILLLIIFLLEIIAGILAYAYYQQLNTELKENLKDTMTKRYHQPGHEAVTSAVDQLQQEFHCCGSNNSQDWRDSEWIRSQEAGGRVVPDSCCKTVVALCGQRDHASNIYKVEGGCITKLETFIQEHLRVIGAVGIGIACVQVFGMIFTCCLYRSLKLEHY
UniProt Q8N350: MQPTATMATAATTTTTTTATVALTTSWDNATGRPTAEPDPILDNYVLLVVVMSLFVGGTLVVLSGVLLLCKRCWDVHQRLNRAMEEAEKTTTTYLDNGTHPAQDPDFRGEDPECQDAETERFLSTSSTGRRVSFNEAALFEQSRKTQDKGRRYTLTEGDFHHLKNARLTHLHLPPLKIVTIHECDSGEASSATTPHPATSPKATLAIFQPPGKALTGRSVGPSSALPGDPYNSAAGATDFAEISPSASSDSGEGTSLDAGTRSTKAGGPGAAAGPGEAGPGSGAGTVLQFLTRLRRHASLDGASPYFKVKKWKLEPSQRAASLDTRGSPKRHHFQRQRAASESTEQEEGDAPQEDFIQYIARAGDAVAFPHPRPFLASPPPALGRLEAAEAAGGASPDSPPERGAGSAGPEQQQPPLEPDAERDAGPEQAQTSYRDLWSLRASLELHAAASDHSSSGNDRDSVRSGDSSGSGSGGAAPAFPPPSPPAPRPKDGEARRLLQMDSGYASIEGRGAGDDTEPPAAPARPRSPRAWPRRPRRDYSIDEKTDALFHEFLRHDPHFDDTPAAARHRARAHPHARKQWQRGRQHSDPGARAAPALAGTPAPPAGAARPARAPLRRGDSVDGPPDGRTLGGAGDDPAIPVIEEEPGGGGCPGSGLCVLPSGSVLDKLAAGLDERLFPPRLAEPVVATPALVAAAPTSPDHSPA
UniProt P08962, whole entry, looked up: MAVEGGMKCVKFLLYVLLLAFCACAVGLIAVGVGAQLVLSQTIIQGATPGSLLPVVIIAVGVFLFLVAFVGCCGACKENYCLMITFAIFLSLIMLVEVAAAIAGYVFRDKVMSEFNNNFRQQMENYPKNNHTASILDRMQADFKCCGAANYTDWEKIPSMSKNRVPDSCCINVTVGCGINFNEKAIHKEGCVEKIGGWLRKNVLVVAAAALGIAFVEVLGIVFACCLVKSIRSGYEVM
UniProt Q9P031: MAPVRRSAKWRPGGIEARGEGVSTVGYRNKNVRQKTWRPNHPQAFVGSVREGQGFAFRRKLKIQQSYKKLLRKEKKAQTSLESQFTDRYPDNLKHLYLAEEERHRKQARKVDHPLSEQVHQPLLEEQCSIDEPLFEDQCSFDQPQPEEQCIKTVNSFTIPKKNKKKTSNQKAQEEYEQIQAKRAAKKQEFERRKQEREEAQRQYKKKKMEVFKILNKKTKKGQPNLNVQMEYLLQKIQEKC
UniProt Q9BSQ5: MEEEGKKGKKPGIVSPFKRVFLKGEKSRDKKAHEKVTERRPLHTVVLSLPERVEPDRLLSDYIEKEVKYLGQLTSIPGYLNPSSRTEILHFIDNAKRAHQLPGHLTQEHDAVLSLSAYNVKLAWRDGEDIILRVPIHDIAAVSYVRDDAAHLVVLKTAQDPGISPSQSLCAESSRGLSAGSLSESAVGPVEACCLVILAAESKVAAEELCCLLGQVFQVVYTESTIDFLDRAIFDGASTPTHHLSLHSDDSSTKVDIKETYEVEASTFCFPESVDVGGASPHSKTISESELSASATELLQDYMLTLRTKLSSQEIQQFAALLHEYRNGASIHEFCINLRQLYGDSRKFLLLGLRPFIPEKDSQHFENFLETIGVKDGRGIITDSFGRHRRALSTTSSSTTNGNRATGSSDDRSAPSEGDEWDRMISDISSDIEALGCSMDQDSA
UniProt Q92851: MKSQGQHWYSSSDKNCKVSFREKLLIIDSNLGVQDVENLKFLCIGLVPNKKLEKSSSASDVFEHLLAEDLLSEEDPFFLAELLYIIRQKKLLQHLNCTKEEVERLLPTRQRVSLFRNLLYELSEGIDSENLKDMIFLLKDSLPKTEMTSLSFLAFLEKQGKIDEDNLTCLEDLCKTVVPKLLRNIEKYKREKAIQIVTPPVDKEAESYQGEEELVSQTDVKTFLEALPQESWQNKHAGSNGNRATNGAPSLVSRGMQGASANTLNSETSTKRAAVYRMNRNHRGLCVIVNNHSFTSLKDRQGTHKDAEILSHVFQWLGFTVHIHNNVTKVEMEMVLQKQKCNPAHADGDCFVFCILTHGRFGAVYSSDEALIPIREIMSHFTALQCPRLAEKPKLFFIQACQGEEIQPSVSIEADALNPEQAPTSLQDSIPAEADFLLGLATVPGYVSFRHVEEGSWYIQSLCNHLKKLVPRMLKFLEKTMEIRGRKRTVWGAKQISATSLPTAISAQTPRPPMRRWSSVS
UniProt Q12834, whole entry, looked up: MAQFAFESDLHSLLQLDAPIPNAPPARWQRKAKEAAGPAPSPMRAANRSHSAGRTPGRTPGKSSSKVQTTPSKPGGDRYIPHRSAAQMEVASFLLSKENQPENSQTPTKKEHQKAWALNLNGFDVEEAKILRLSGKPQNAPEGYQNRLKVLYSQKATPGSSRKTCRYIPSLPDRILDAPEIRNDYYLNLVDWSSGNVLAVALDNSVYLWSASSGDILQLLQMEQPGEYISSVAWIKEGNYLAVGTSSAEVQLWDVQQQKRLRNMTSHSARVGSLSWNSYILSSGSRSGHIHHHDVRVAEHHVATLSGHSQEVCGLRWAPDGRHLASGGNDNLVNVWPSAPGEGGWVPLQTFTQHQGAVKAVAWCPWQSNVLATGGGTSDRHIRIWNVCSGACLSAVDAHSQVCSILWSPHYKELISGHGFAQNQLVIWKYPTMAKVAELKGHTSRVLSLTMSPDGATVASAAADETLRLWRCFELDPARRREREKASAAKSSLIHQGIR
UniProt O75909: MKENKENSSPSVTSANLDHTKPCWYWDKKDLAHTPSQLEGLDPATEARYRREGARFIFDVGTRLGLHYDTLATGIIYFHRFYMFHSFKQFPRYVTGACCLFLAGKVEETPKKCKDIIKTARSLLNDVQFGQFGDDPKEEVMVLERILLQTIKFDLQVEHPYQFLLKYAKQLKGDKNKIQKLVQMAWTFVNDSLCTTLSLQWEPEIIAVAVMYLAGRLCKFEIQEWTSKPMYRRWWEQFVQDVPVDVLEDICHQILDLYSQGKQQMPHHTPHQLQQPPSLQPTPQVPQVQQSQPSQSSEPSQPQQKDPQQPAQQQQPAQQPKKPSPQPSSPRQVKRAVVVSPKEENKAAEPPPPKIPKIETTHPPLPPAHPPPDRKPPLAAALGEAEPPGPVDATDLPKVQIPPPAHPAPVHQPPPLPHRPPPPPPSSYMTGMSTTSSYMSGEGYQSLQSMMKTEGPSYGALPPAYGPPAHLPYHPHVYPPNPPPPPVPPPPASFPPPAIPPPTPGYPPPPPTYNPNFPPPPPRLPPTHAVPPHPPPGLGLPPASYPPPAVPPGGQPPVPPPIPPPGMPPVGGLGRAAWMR
UniProt P08174: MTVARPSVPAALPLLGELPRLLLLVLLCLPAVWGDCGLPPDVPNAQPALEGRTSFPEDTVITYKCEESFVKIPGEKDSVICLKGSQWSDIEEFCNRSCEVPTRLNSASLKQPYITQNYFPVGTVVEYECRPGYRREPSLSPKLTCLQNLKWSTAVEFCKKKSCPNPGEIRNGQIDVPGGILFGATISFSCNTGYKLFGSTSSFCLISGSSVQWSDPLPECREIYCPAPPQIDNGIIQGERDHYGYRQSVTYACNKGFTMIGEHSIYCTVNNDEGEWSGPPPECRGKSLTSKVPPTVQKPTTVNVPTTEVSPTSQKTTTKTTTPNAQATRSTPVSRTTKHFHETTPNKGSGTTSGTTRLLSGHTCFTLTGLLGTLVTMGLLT
UniProt P24863: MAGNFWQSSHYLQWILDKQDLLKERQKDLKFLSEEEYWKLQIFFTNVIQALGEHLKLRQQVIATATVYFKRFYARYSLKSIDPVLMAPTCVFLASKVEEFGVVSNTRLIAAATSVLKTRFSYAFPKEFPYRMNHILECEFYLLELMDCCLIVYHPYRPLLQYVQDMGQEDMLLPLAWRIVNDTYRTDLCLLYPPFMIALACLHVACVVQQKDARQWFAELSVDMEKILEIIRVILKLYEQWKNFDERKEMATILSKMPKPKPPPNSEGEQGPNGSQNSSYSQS
UniProt Q04900: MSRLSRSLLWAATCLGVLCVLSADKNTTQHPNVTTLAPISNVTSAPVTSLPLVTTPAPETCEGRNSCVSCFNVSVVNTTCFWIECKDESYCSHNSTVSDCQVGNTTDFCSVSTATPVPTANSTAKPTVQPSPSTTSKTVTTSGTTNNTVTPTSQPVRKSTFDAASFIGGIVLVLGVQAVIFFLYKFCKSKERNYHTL

How the values were obtained:
Experiment in all cases: log2 fold change, soluble protein after heating vs DMSO (PISA); higher = thermal stabilisation; K562 cells, 10 uM, 30 min; active = over 0.2 and 3.5 SD of the protein, either way, in both replicates (recomputed)
IRAK-1-4 Inhibitor I = compound: C1COCCN1CCN2C3=CC=CC=C3N=C2NC(=O)C4=CC(=CC=C4)[N+](=O)[O-] [IRAK-1-4 Inhibitor I]
Procedure, shortened: (§1)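 Aliquots of K562 cells (2×10^6 cells/mL) treated with 10 μM compound for 30 min were heated for 3 min over 48°C-58°C. After pooling and extraction in PBS with 0.5% NP-40 at 4°C, soluble protein from a 21,000xg, 90 min spin was quantified by TMTpro 16plex LC-MS/MS with channel sums equalised. Thermal stability is expressed against control samples, from duplicates, as a log2 fold change.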

ibrutinib = compound: C=CC(=O)N1CCC[C@@H](n2nc(-c3ccc(Oc4ccccc4)cc3)c3c(N)ncnc32)C1 [ibrutinib]
Procedure, shortened: as §1

[1] = compound: CC(=O)c1cnc2ccc(-c3cc(Cl)c(O)c(Cl)c3)nc2c1N[C@H]1CC[C@H](CN(C)C)CC1
Procedure, shortened: as §1

ralimetinib = compound: CC(C)(C)Cn1c(N)nc2ccc(-c3[nH]c(C(C)(C)C)nc3-c3ccc(F)cc3)nc21 [ralimetinib]
Procedure, shortened: as §1

[2] = compound: CC(C)(O)CC(=O)NCCn1ccc2ncnc(Nc3ccc(Oc4cccc(C(F)(F)F)c4)c(Cl)c3)c21
Procedure, shortened: as §1

[3] = compound: CC(C)C1=C2N=C(C=C(N2N=C1)NCC3=CC=CC=C3)NCCCCCCN
Procedure, shortened: as §1

[4] = compound: CC(C)C[C@@H](C=O)NC(=O)[C@H](CC(C)C)NC(=O)[C@H](CC(C)C)NC(=O)OCc1ccccc1
Procedure, shortened: as §1

pinometostat = compound: CC(C)N(C[C@H]1O[C@@H](n2cnc3c(N)ncnc32)[C@H](O)[C@@H]1O)[C@H]1C[C@@H](CCc2nc3cc(C(C)(C)C)ccc3[nH]2)C1 [pinometostat]
Procedure, shortened: as §1

[5] = compound: CC1=C(C2=C(C=C1)C(=O)C3=CC=CC=C3N2CCCN)C
Procedure, shortened: as §1

[6] = compound: CC1=C(C=C(C=C1)NC(=O)C2=CC(=CC=C2)C(C)(C)C#N)NC3=CC4=C(C=C3)N=CN(C4=O)C
Procedure, shortened: as §1

[7] = compound: CC1=C(C=C(C=C1)NC(=O)C2=CC(=CC=C2)N(C)C)NC(=O)C3=CC=C(C=C3)O
Procedure, shortened: as §1

[8] = compound: CC1=CC=C(C=C1)SC2=C3C=C(SC3=CN=C2)C(=O)N
Procedure, shortened: as §1

[9] = compound: CC1=NC(=CC=C1)C2=C(N=C(N2)C(C)(C)C)C3=CC4=NC=CN=C4C=C3
Procedure, shortened: as §1

Nexturastat A = compound: CCCCN(Cc1ccc(C(=O)NO)cc1)C(=O)Nc1ccccc1 [Nexturastat A]
Procedure, shortened: as §1

vemurafenib = compound: CCCS(=O)(=O)Nc1ccc(F)c(C(=O)c2c[nH]c3ncc(-c4ccc(Cl)cc4)cc23)c1F [vemurafenib]
Procedure, shortened: as §1

[10] = compound: CCCS(=O)(=O)Nc1ccc(F)c(C(=O)c2c[nH]c3ncc(Cl)cc23)c1F
Procedure, shortened: as §1

[11] = compound: CCCc1cc(C)[nH]c(=O)c1CNC(=O)c1cc(-c2ccnc(N3CCN(C)CC3)c2)cc2c1cnn2C(C)C
Procedure, shortened: as §1

givinostat = compound: CCN(CC)Cc1ccc2cc(COC(=O)Nc3ccc(C(=O)NO)cc3)ccc2c1 [givinostat]
Procedure, shortened: as §1

barasertib = compound: CCN(CCCOc1ccc2c(Nc3cc(CC(=O)Nc4cccc(F)c4)[nH]n3)ncnc2c1)CCOP(=O)(O)O [barasertib]
Procedure, shortened: as §1

[12] = compound: CC1=C(C(CC(=O)N1)C2=CC=C(C=C2)C(F)(F)F)C(=O)NC3=C(C=C4C(=C3)C=NN4)F
Procedure, shortened: as §1

| Target | log2 fold change (IRAK-1-4 Inhibitor I) | log2 fold change (ibrutinib) | log2 fold change [1] | log2 fold change (ralimetinib) | log2 fold change [2] | log2 fold change [3] | log2 fold change [4] | log2 fold change (pinometostat) | log2 fold change [5] | log2 fold change [6] | log2 fold change [7] | log2 fold change [8] | log2 fold change [9] | log2 fold change (Nexturastat A) | log2 fold change (vemurafenib) | log2 fold change [10] | log2 fold change [11] | log2 fold change (givinostat) | log2 fold change (barasertib) | log2 fold change [12] |
| --- | --- | --- | --- | --- | --- | --- | --- | --- | --- | --- | --- | --- | --- | --- | --- | --- | --- | --- | --- | --- |
| CASC3 (UniProt O15234) | inactive: -0.014 | inactive: 0.1 | active: 0.582 | inactive: 0.07 | inactive: -0.023 | inactive: 0.411 | inactive: -0.036 | inactive: -0.005 | inactive: 0.206 | inactive: 0.043 | inactive: -0.003 | inactive: 0.009 | inactive: -0.027 | inactive: -0.004 | inactive: -0.156 | inactive: -0.061 | inactive: -0.065 | inactive: -0.045 | inactive: 0.043 |  |
| CD151 (UniProt P48509) | inactive: -0.077 | inactive: 0.012 | inactive: 0.025 | inactive: 0.013 | inactive: -0.021 | inactive: -0.017 | inactive: 0.027 | inactive: -0.054 | inactive: 0.083 | inactive: -0.125 | inactive: -0.057 | inactive: -0.002 | inactive: 0.027 | inactive: -0.159 | inactive: -0.103 | inactive: 0 | inactive: -0.21 | inactive: 0.018 | inactive: -0.052 |  |
| CBARP (UniProt Q8N350) | inactive: 0.06 | inactive: 0.154 | inactive: 0.071 | inactive: 0.034 | inactive: 0.049 |  | inactive: -0.037 | inactive: 0.16 | inactive: -0.091 | inactive: 0 | inactive: 0.057 |  | inactive: -0.188 | inactive: 0.006 | inactive: -0.134 |  |  |  | inactive: 0.295 | inactive: -0.036 |
| CD63 (UniProt P08962) | inactive: 0.022 | inactive: 0.036 | inactive: 0.032 | inactive: 0.047 | inactive: 0.006 | inactive: 0.081 | inactive: 0.056 | inactive: 0.007 | inactive: 0.003 | inactive: -0.007 | inactive: 0.056 | inactive: 0.004 | inactive: 0.009 | inactive: -0.072 | inactive: 0.064 | inactive: -0.007 | inactive: -0.125 | inactive: 0.096 | inactive: -0.025 |  |
| CCDC59 (UniProt Q9P031) | inactive: -0.083 | inactive: -0.051 | inactive: 0.224 | inactive: 0.28 | inactive: -0.073 | inactive: 0.093 | inactive: 0.197 | inactive: 0.233 | inactive: -0.468 | inactive: -0.067 | inactive: -0.017 | inactive: -0.144 | inactive: -0.213 | active: 0.549 | inactive: -0.037 | inactive: 0.008 | inactive: 0.113 | inactive: 0.086 | inactive: -0.013 |  |
| CCM2 isoform 2 (UniProt Q9BSQ5) | inactive: 0.027 | inactive: -0.004 |  | inactive: 0.04 | inactive: 0.027 | inactive: -0.085 | inactive: 0.009 | inactive: 0.056 | inactive: -0.013 | inactive: -0.072 | inactive: -0.068 | inactive: -0.124 | inactive: -0.002 | inactive: 0.102 | inactive: 0.008 | inactive: 0.009 | inactive: 0.052 | inactive: -0.003 | inactive: -0.061 |  |
| CASP10 isoform 4 (UniProt Q92851) | inactive: -0.132 | inactive: -0.083 | inactive: 0.083 | inactive: 0.095 | inactive: -0.13 |  | inactive: -0.015 | inactive: 0.047 | inactive: 0.262 | inactive: 0.015 | inactive: 0.026 | inactive: 0.085 | inactive: 0 | inactive: 0.125 | inactive: -0.015 | inactive: 0.014 | inactive: 0.034 |  | inactive: 0.121 |  |
| CDC20 (UniProt Q12834) | inactive: -0.146 | inactive: -0.097 | inactive: -0.321 | inactive: 0.084 | inactive: 0.02 | inactive: -0.247 | inactive: 0.23 | inactive: 0 | inactive: -0.029 | inactive: 0.055 | inactive: -0.001 | inactive: 0.044 | inactive: -0.139 | inactive: -0.055 | inactive: 0.153 | inactive: 0.108 | inactive: 0.025 | inactive: 0.031 | inactive: -0.088 |  |
| CCNK isoform 4 (UniProt O75909) | inactive: -0.143 | inactive: 0.02 | inactive: -0.058 | inactive: 0.031 | inactive: -0.007 | inactive: -0.008 | inactive: 0.045 | inactive: 0.15 | inactive: -0.047 | inactive: 0 | inactive: 0.032 | inactive: -0.032 | inactive: -0.011 | inactive: 0.024 | inactive: -0.088 | inactive: 0 | inactive: 0.038 | inactive: 0.014 | inactive: -0.063 |  |
| CD55 isoform 7 (UniProt P08174) | inactive: -0.043 | inactive: 0.071 | inactive: -0.008 | inactive: 0.016 | inactive: 0.037 | inactive: 0.155 | inactive: -0.012 | inactive: 0.019 | inactive: -0.054 | inactive: 0.037 | inactive: -0.006 | inactive: 0.021 | inactive: 0.049 | inactive: 0.072 | inactive: -0.031 | inactive: -0.053 | inactive: 0.088 | inactive: 0 | inactive: -0.057 |  |
| CCNC (UniProt P24863) | inactive: 0.071 | inactive: -0.082 | active: 0.595 | inactive: -0.027 | inactive: 0.053 | inactive: 0.041 | inactive: 0.071 | inactive: -0.058 |  | inactive: 0.207 | inactive: -0.072 |  | inactive: 0.031 | inactive: 0.008 | inactive: 0.105 |  | inactive: -0.086 | inactive: 0.011 | inactive: -0.024 |  |
| CD164 (UniProt Q04900) |  | inactive: 0.045 | inactive: -0.336 | inactive: -0.033 | inactive: -0.016 | inactive: 0.126 | inactive: 0.015 |  |  | inactive: 0.004 | inactive: -0.105 |  |  | inactive: 0.234 | inactive: 0.174 |  | inactive: -0.138 | inactive: 0.068 | inactive: -0.044 | inactive: 0.109 |
